From US11286281B2, “Homodetic cyclic peptides targeting alpha-4-beta-7 integrin” (priority 2017, dated 2022)
“And” between values parts separate entries of the source, which are not always exact repeats. Identical values can stand only once. Not every detail of the peptide structures is certain; ends, links or a residue may be inferred.

What was measured:
integrin α4β7 = biological target: T1, integrin α4β7 (Homo sapiens, UniProt P13612+P26010); assay: Integrin α4β7-MAdCAM human cell adhesion assay (RPMI8866 cells); type: cell-based; design: host or cells: RPMI8866 human cells
T1 sequence (P13612 34-1032): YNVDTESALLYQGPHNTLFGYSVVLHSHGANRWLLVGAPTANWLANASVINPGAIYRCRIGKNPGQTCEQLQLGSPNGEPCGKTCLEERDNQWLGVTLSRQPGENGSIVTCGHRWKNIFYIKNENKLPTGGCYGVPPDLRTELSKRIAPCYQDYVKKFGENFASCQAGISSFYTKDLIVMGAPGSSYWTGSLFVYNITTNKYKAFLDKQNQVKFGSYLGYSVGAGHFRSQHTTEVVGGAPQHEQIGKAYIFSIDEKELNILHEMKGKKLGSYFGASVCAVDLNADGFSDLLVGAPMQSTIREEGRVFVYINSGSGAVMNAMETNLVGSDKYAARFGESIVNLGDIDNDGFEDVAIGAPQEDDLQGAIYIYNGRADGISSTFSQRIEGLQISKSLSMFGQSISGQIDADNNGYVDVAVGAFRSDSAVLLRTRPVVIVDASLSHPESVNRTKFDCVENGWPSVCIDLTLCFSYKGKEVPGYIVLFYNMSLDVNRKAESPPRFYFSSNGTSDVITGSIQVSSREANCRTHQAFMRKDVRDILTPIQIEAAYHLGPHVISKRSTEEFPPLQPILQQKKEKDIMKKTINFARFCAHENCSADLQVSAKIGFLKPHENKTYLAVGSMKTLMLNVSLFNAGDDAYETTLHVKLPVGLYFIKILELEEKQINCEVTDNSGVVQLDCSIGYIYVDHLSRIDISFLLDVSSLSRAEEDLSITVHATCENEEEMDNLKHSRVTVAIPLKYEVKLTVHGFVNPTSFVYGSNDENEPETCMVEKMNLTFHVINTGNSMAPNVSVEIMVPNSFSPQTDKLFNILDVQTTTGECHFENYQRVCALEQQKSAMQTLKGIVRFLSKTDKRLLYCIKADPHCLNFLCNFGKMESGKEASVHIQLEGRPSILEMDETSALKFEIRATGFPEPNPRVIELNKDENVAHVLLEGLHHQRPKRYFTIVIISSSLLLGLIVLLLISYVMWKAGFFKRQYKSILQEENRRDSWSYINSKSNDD
T1 sequence (P26010 20-798): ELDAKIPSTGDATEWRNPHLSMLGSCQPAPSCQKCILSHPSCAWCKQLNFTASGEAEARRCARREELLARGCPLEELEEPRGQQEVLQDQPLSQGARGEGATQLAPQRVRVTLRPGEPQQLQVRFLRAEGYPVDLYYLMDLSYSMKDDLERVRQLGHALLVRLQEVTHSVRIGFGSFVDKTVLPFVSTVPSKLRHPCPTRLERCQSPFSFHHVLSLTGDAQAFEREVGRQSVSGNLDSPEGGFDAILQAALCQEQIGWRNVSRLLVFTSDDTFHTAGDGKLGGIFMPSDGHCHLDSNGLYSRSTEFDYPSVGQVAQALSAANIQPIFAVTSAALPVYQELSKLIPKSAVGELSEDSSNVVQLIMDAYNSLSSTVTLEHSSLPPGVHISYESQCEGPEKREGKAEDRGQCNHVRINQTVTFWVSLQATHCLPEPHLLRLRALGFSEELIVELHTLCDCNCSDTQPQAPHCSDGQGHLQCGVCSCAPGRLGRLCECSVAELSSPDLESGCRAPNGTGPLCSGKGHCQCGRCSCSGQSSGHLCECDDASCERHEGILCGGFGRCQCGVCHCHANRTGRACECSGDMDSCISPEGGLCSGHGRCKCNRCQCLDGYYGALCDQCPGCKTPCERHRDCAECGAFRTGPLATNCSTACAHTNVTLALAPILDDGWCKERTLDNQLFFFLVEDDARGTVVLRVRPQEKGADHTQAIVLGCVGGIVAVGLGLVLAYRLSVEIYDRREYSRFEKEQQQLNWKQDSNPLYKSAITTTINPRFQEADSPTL
Experimental: RPM18866 human cells (Sigma #95041316) were cultured in RPMI 1640 medium (HyClone SH30027.1) supplemented with 10% FBS (Seradigm) and 1% Penicillin-Streptomycin. […] RPM18866 cells were resuspended at 10 million cells/ml in PBS containing […] and incubated at 37° C. for 30 min in a 50 ml tube. […] The plate was emptied by inverting and blotting on paper towels and washed manually twice with PBS. 100 μl PBS was then added to each well. The fluorescence was read (Ex495/Em515) using a plate reader (Tecan Infinite 1000). To calculate the dose response, the fluorescence value of control wells not containing cells was subtracted from each test well.

integrin α4β1 = integrin α4β1 (Homo sapiens, UniProt P05556+P13612); assay: Whole blood ligand displacement (receptor occupancy): biotinylated rhVCAM-1 binding to α4β7-negative Th memory cells; type: cell-based; conditions: read-out: VCAM Competition IC50 (receptor occupancy)
Experimental: Receptor occupancy (RO) in primary cells was determined by measuring the amount of biotinylated human recombinant MAdCAM-1-FC or human recombinant VCAM-1-Fc bound to selected cell populations using flow cytometry. Human recombinant MAdCAM-1-FC or human recombinant VCAM-1-FC (R&D systems) were biotinylated using commercially available reagents and protocol (Pierce). Whole blood was collected from human donors in sodium heparin tubes. […] Cells were washed twice with 1 mL of 1×DPBS calcium magnesium free(CMF) (ThermoFisher Scientific) and resuspended in 100 μL of DPBS CMF. […] Cells were washed with 1 mL stain buffer-FBS (BD Biosciences) and resuspended in 100 μl stain Buffer-FBS (BD Biosciences) containing 4 mM MnCl2. […] Cells were then washed with 1 mL stain buffer-FBS and resuspended in 100 μl stain buffer-FBS. The cells were incubated in the dark for 30 minutes at room temperature with 1 μl Streptavidin APC (Biolegend 0.2 mg/ml) and a panel of antibodies for the detection of memory T helper a4b7-positive cells subset. And amount of 5.0 μl each of the following antibodies were used; CD45 FITC (BioLegend 200 μg/ml), CD29 APC Cy7 (BioLegend 100 μg/ml), Integrin beta7 PE, (BioLegend concentration 50 μg/mL), CD49d […] (BioLegend 50 μg/mL), CD3 […] […] Cell population were determined using the following markers, CD45+, CD3+, CD4+, CD45RO+, CD49d+, integrin β7, biotinylated ligands.

## CC(C)C[C@@H]1NC(=O)c2ccc(-c3ccc(N4CCN(C(=O)c5ccccc5-c5ccccc5C(=O)N5CCN(c6ccc(-c7ccc8cc7CNC(=O)[C@@H]7CCCN7C(=O)[C@H](C)NC(=O)[C@H]([C@@H](C)O)NC(=O)[C@H](CC(=O)O)NC(=O)[C@H](CC(C)C)NC8=O)cc6)CC5)CC4)cc3)c(c2)CNC(=O)[C@@H]2CCCN2C(=O)[C@H](C)NC(=O)[C@H]([C@@H](C)O)NC(=O)[C@H](CC(=O)O)NC1=O [Compound 16]
Integrin α4β7; RAMOS (α4β1) versus RPMI8866 (α4β7)
  fold difference in IC50 between RAMOS and RPMI8866 cell adhesion assays, in favor of integrin α4β7: 3.5 fold
Integrin α4β7; adhesion of RPMI8866 cells to MAdCAM-1 coated plates
  IC50: ~6 nM and 5.5 nM
Integrin α4β1
  IC50: 63.8 nM
